These results are taken from publication PMC12533208.

Results are given in words; binding and its absence hold for the method and conditions named. Binding seen in cells or lysates may run through a third protein. Some results given as binding are weak or reduced against the parent protein; the word gives no strength.

This assay addresses T1, neutral sphingomyelinase 1 (nSMase1) (UniProt O60906).
T1 sequence: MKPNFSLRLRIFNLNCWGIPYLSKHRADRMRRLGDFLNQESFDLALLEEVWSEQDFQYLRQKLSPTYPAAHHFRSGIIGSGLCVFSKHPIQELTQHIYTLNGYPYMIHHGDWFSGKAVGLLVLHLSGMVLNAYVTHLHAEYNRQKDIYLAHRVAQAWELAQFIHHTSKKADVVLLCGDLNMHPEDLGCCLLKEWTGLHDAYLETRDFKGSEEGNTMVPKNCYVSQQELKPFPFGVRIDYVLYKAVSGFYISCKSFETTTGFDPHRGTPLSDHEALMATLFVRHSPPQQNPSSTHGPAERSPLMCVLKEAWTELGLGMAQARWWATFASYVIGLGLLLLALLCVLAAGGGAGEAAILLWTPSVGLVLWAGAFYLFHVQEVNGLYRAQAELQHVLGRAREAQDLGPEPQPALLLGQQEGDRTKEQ
Briefly: co-IP; astrocyte lysates (IP lysis buffer), control or hypoxia-treated cells; primary antibody or species-matched IgG control (1:100), protein A/G magnetic beads 2 h at 4 °C, three washes with IP lysis buffer, Western blot; nSMase1-bound HK2 quantified.

B1: hexokinase 2 (HK2) (enzyme, UniProt P52789 1-917)
chain: MIASHLLAYFFTELNHDQVQKVDQYLYHMRLSDETLLEISKRFRKEMEKGLGATTHPTAAVKMLPTFVRSTPDGTEHGEFLALDLGGTNFRVLWVKVTDNGLQKVEMENQIYAIPEDIMRGSGTQLFDHIAECLANFMDKLQIKDKKLPLGFTFSFPCHQTKLDESFLVSWTKGFKSSGVEGRDVVALIRKAIQRRGDFDIDIVAVVNDTVGTMMTCGYDDHNCEIGLIVGTGSNACYMEEMRHIDMVEGDEGRMCINMEWGAFGDDGSLNDIRTEFDQEIDMGSLNPGKQLFEKMISGMYMGELVRLILVKMAKEELLFGGKLSPELLNTGRFETKDISDIEGEKDGIRKAREVLMRLGLDPTQEDCVATHRICQIVSTRSASLCAATLAAVLQRIKENKGEERLRSTIGVDGSVYKKHPHFAKRLHKTVRRLVPGCDVRFLRSEDGSGKGAAMVTAVAYRLADQHRARQKTLEHLQLSHDQLLEVKRRMKVEMERGLSKETHASAPVKMLPTYVCATPDGTEKGDFLALDLGGTNFRVLLVRVRNGKWGGVEMHNKIYAIPQEVMHGTGDELFDHIVQCIADFLEYMGMKGVSLPLGFTFSFPCQQNSLDESILLKWTKGFKASGCEGEDVVTLLKEAIHRREEFDLDVVAVVNDTVGTMMTCGFEDPHCEVGLIVGTGSNACYMEEMRNVELVEGEEGRMCVNMEWGAFGDNGCLDDFRTEFDVAVDELSLNPGKQRFEKMISGMYLGEIVRNILIDFTKRGLLFRGRISERLKTRGIFETKFLSQIESDCLALLQVRAILQHLGLESTCDDSIIVKEVCTVVARRAAQLCGAGMAAVVDRIRENRGLDALKVTVGVDGTLYKLHPHFAKVMHETVKDLAPKCDVSFLQSEDGSGKGAALITAVACRIREAGQR
Regarding B1, the binding entry is given as “binds”.
